Measured values: publication doi:10.1101/2024.06.13.598777, “Acetylation of the yeast Hsp40 chaperone protein Ydj1 fine-tunes proteostasis and translational fidelity” (bioRxiv, 2024)
Results are given in words; binding and its absence hold for the method and conditions named. Binding seen in cells or lysates may run through a third protein. Some entries that bind do so weakly or less than the wild type.

Sequences of proteins named here, by UniProt entry; tags and fusion partners are left off. A change or cut given only in a name is not applied to a line headed by its entry. A line that says so, or that is headed by a name, gives the form on record, which may keep a tag or linker.
UniProt P25491: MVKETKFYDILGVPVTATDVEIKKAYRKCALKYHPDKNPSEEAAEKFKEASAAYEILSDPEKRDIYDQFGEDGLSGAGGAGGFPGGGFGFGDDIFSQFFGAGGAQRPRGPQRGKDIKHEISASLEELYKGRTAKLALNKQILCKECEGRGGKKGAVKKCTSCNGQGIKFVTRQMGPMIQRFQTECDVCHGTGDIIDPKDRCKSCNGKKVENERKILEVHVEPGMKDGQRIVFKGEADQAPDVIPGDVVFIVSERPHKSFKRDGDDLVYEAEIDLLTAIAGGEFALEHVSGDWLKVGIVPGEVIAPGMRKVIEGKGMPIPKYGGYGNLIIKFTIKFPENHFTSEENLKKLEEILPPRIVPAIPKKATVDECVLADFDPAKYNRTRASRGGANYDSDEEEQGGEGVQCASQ
Ydj1-FLAG 6KQ (P25491, form named): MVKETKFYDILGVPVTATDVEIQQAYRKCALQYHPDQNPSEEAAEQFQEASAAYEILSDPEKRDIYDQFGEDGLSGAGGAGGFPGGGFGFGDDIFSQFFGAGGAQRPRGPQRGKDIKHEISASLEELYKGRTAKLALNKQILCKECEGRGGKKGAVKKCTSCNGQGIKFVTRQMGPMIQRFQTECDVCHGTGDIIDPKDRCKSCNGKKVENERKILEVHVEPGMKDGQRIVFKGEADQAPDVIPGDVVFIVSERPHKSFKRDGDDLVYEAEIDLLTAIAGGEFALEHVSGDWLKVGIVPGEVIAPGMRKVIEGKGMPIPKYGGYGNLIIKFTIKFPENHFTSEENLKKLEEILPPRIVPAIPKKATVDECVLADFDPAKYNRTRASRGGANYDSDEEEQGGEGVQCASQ
Ydj1-FLAG 6KR (P25491, form named): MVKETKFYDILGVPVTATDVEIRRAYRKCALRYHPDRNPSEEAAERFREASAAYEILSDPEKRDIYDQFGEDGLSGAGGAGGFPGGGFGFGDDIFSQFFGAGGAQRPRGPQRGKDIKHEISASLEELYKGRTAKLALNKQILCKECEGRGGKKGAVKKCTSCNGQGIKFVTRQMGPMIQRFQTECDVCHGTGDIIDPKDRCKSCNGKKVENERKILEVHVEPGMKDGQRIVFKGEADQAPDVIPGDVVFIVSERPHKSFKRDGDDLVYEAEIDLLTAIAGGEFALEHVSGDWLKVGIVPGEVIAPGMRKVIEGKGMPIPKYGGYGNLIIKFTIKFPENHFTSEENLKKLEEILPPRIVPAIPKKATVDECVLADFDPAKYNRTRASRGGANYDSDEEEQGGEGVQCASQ
UniProt P10591: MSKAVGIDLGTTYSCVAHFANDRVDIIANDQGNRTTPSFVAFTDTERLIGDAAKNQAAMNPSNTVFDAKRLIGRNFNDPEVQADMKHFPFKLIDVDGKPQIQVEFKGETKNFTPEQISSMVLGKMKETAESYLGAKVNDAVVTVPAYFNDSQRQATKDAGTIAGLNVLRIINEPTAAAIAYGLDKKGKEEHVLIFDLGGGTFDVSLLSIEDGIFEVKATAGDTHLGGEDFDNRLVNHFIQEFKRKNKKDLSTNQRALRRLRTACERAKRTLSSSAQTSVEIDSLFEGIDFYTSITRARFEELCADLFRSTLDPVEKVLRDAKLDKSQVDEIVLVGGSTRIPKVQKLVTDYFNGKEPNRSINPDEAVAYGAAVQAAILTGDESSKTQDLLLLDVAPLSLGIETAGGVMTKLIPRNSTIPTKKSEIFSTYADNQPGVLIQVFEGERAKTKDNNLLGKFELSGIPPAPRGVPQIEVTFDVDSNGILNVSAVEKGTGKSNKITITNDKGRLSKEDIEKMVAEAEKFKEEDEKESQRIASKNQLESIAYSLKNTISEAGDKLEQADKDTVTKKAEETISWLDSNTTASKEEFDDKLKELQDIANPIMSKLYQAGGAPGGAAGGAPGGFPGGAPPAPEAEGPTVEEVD

Assays:
Experiment in all cases: co-IP; Ydj1-FLAG (wild-type, 6KQ, 6KR) from yeast extract on anti-FLAG M2 magnetic beads, 50 mM Na-phosphate pH 8.0, 300 mM NaCl, 0.01% Tween-20, 4 C overnight, eluted with 3X FLAG peptide; blot with antisera to Ssa1
Ydj1-FLAG 6KQ (yeast) = Ydj1-FLAG 6KQ (yeast) (UniProt P25491)
Ydj1-FLAG 6KR (yeast) = Ydj1-FLAG 6KR (yeast) (UniProt P25491)
[1] = molecular target: Ydj1-FLAG wild-type (yeast) (UniProt P25491)

binding (Ydj1-FLAG 6KQ (yeast)): binds weakly | binding (Ydj1-FLAG 6KR (yeast)): binds | binding [1]: binds
Substance: Ssa1 (endogenous, yeast) (from UniProt P10591 1-642)
